At least one structure is not confirmed: it was looked up by name or label, or the drawing left a doubt.
System: B16F10 melanoma tumor
Assay: Tumour growth inhibition assay, B16F10 melanoma in C57BL/6J mice
Type: in vivo, mouse
Settings: liposomes 1:1:1 with DOPC:Q16TG injected at tumour site on day 14, 16, 18, 21, 24

Q: With C[C@@H]1C[C@H]2[C@@H]3CCC4=CC(=O)C=C[C@]4(C)[C@@]3(F)[C@@H](O)C[C@]2(C)[C@@]1(O)C(=O)CO [Dexamethasone, reference compound] as the compound, how does the tumor growth inhibition read?
A: The tumor growth inhibition was “moderate tumour growth inhibition”.
